Data taken from ChEMBL document CHEMBL3988442, “University of Dundee, Small-Polar-MMV Screening Library” (2021).

Values are the deposited “Percent Effect”, in %. How 0% and 100% were set is not recorded. Most values in the screen are low, and negative values occur. This is an unselected part of the compounds tested. Two or more numbers in one place are separate tests of the same structure; such repeats can differ widely.

Mtb glucose medium: 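Whole-cell growth test on Mycobacterium tuberculosis, read after 3 days in glucose-containing 7H9 medium; the read-out is not stated. Tested at 50 µM. The record gives no direction; compounds that gave an IC50 in retests scored well above the rest, so higher reads as more growth inhibition. Of about 69,000 compounds tested this way, about 760 (1.1%) reached 50% or more in at least one test.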
Mtb cholesterol medium: 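Phenotypic screen: M. tuberculosis growth, cholesterol and DPPC medium, 4 days; the read-out is not stated. Concentration: 50 µM. Direction is inferred from retests: higher values go with more growth inhibition. About 69,000 compounds were tested under these conditions; 0.54% (about 370) showed 50% or more at least once.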

{"smiles": "CN(C)C(=O)COC1COC2(CCN(c3cccc(F)c3)CC2)C1.O=C(O)C(F)(F)F", "stereo": "configuration not stated", "Mtb glucose medium": 17.36, "Mtb cholesterol medium": -3.718}
{"smiles": "CCS(=O)(=O)Cc1nc(-c2cnn3c(C)cc(C)nc23)no1", "Mtb glucose medium": -14, "Mtb cholesterol medium": -1.692}
{"smiles": "COc1ccccc1C1CNC(=O)c2nc(-c3nccn3C)[nH]c2C1", "stereo": "configuration not stated", "Mtb glucose medium": -12.69, "Mtb cholesterol medium": -18.71}
{"smiles": "NCc1cnn(-c2ccccc2C(=O)NCc2ccncc2)c1", "Mtb glucose medium": 8.605, "Mtb cholesterol medium": -11.31}
{"smiles": "CC(CN1CCOCC1)NC(=O)Nc1cccnc1-n1cccn1", "stereo": "configuration not stated", "Mtb glucose medium": "-23.08 & -3.271", "Mtb cholesterol medium": -23.2}
{"smiles": "COCCOc1ccc(S(=O)(=O)Nc2cccc(O)c2F)cc1C", "Mtb glucose medium": 6.763, "Mtb cholesterol medium": "-5.528 & 14.95"}
{"smiles": "COCCN(CCOC)C(=O)c1cc(F)cc2[nH]cnc12", "Mtb glucose medium": 11.37, "Mtb cholesterol medium": -0.03437}
{"smiles": "O=C(c1cccnc1)N1CCCC1c1cc[nH]n1", "stereo": "configuration not stated", "Mtb glucose medium": -30.27, "Mtb cholesterol medium": -14.79}
{"smiles": "CN(Cc1cnn(C)c1)C(=O)NCc1ccc2c(c1)OCCO2", "Mtb glucose medium": -10.37, "Mtb cholesterol medium": -2.953}
{"smiles": "NC(=O)c1cc2c(nc1-c1ccc3c(c1)OCCO3)CCC2", "Mtb glucose medium": "5.386 & -15.09", "Mtb cholesterol medium": -4.314}
{"smiles": "CCCN(CCN(C)C)C(=O)Cc1cn2ccsc2n1", "Mtb glucose medium": -19.43, "Mtb cholesterol medium": -22.94}
{"smiles": "[H][C@@]12CCC(=O)N(c3ccccc3)[C@]1([H])CCN2C(=O)c1ccc(C)o1", "Mtb glucose medium": 5.773, "Mtb cholesterol medium": -2.41}
{"smiles": "CCc1c(C(=O)N2CC[C@H](N3CCOCC3)[C@H](CCCO)C2)csc1C", "Mtb glucose medium": "40.81 & 4.961", "Mtb cholesterol medium": 7.893}
{"smiles": "CC(O)CN1CCc2[nH]nc(C(c3ccccc3)c3ccccc3)c2C1", "stereo": "configuration not stated", "Mtb glucose medium": 18.42, "Mtb cholesterol medium": -7.859}
{"smiles": "OC1(CNc2ccc(Br)cn2)CCSCC1", "Mtb glucose medium": -34.83, "Mtb cholesterol medium": -21.06}
{"smiles": "N#Cc1ccnc(SCC2CN=C(N3CCOCC3)S2)c1", "stereo": "configuration not stated", "Mtb glucose medium": 16.19, "Mtb cholesterol medium": -9.347}
{"smiles": "Cc1ccc(CN(C(=O)C(C)S(C)(=O)=O)C2CC2)cc1C", "stereo": "configuration not stated", "Mtb glucose medium": 0.5205, "Mtb cholesterol medium": -9.24}
{"smiles": "CC(NC1(CNC(=O)OC(C)(C)C)CCOCC1)c1ccccc1", "stereo": "configuration not stated", "Mtb glucose medium": "-8.941 & 6.434", "Mtb cholesterol medium": 9.416}
{"smiles": "CNc1cc(C)nc(C2COCCN2CCc2ccc(F)cc2)n1", "stereo": "configuration not stated", "Mtb glucose medium": 5.796, "Mtb cholesterol medium": "-0.3034 & 1.807"}
{"smiles": "[H][C@@]12CCCCN(C(=O)c3cnccn3)[C@]1([H])[C@@H](c1ccccc1)CCN2C", "Mtb glucose medium": 26.41, "Mtb cholesterol medium": -2.517}
{"smiles": "O=C(CN(Cc1ccco1)C1CC1)N1CCCCCC1", "Mtb glucose medium": 5.287, "Mtb cholesterol medium": -1.57}
{"smiles": "Cc1nc(CNC(=O)NC2CCN(c3ncccc3Cl)C2)no1", "stereo": "configuration not stated", "Mtb glucose medium": 15.07, "Mtb cholesterol medium": -13.01}
{"smiles": "[H][C@@]12CCNC[C@]1([H])N(C(=O)N1CCCC1)C2", "Mtb glucose medium": -22.33, "Mtb cholesterol medium": 3.008}
{"smiles": "O=C1Nc2ccccc2NC12CCN(Cc1nnc(C3CC3)o1)CC2", "Mtb glucose medium": 7.713, "Mtb cholesterol medium": -6.406}
{"smiles": "O=S(=O)(CCN1CCOC(Cn2cncn2)C1)c1ccccc1", "stereo": "configuration not stated", "Mtb glucose medium": 27.63, "Mtb cholesterol medium": 14.72}
{"smiles": "O=C1CCC2(CCCO2)CCN1Cc1noc(C2CCCC2)n1", "stereo": "configuration not stated", "Mtb glucose medium": -0.4452, "Mtb cholesterol medium": "10.3 & 3.284"}
{"smiles": "Cc1nccn1CCCC(=O)N1CCC(Nc2cccnn2)CC1", "Mtb glucose medium": 23.35, "Mtb cholesterol medium": 12.75}
{"smiles": "Cc1cc(C)n(CC2CCN(CC(O)CN3CCOCC3)CC2)n1", "stereo": "configuration not stated", "Mtb glucose medium": -7.988, "Mtb cholesterol medium": -4.681}
{"smiles": "CN(C)S(=O)(=O)N1CCN(C(=O)c2cc(-c3ccc(Br)s3)n[nH]2)CC1", "Mtb glucose medium": "3.89 & 22.77", "Mtb cholesterol medium": -0.01339}
{"smiles": "COC1CCN(C(=O)c2ccccc2NCc2cccnc2)CC1", "Mtb glucose medium": 26.51, "Mtb cholesterol medium": 2.495}
{"smiles": "CN(Cc1ccco1)C(=O)Nc1cc(C(F)(F)F)c[nH]c1=O", "Mtb glucose medium": 18.78, "Mtb cholesterol medium": -14.65}
{"smiles": "CCOC(C)C(=O)N(C)C1CCN(c2ccc(OC)cc2)CC1", "stereo": "configuration not stated", "Mtb glucose medium": -12.16, "Mtb cholesterol medium": 14.05}
{"smiles": "CC(C)c1ccc(OCCC(=O)N2CCCN(C(N)=O)CC2)cc1", "Mtb glucose medium": 18.82, "Mtb cholesterol medium": 11.45}
{"smiles": "Cc1nc(CN2C(=O)CCC23CCN(Cc2ccccn2)CC3)cs1.O=C(O)C(F)(F)F.O=C(O)C(F)(F)F", "Mtb glucose medium": 53.58, "Mtb cholesterol medium": -1.575}
{"smiles": "CC1CCCN(c2ncc(C(=O)NCc3ccc(F)c(Cl)c3)c(N)n2)C1", "stereo": "configuration not stated", "Mtb glucose medium": 13.14, "Mtb cholesterol medium": 8.676}
{"smiles": "CC(C(=O)Nc1ccc(Cl)cn1)N1CCc2nn(C)c(=O)cc2C1", "stereo": "configuration not stated", "Mtb glucose medium": 6.786, "Mtb cholesterol medium": 10.68}
{"smiles": "Cc1cc(CNC(=O)N2CCN(Cc3ccccc3)C[C@H]2C)on1", "Mtb glucose medium": -0.666, "Mtb cholesterol medium": -9.982}
{"smiles": "CN(C)C(=O)c1ccccc1NC(=O)N[C@@H]1c2ccccc2C[C@@H]1O", "Mtb glucose medium": "-20.74 & 1.536", "Mtb cholesterol medium": -18.99}

4 of the entries, repeated:

SMILES,Mtb glucose medium,Mtb cholesterol medium
Cc1nc(CN2C(=O)CCC23CCN(Cc2ccccn2)CC3)cs1.O=C(O)C(F)(F)F.O=C(O)C(F)(F)F,53.58,-1.575
CN(Cc1ccco1)C(=O)Nc1cc(C(F)(F)F)c[nH]c1=O,18.78,-14.65
Cc1nc(CNC(=O)NC2CCN(c3ncccc3Cl)C2)no1 (configuration not stated),15.07,-13.01
CC(C(=O)Nc1ccc(Cl)cn1)N1CCc2nn(C)c(=O)cc2C1 (configuration not stated),6.786,10.68